# Assay results: PubChem BioAssay AID743255 (National Center for Advancing Translational Sciences (NCATS), 2014)
# Chains of the proteins cited; added tags and fusions are not shown. Lines headed by an entry give the natural chain unless they say otherwise; changes in a name come on top.
# UniProt O94782: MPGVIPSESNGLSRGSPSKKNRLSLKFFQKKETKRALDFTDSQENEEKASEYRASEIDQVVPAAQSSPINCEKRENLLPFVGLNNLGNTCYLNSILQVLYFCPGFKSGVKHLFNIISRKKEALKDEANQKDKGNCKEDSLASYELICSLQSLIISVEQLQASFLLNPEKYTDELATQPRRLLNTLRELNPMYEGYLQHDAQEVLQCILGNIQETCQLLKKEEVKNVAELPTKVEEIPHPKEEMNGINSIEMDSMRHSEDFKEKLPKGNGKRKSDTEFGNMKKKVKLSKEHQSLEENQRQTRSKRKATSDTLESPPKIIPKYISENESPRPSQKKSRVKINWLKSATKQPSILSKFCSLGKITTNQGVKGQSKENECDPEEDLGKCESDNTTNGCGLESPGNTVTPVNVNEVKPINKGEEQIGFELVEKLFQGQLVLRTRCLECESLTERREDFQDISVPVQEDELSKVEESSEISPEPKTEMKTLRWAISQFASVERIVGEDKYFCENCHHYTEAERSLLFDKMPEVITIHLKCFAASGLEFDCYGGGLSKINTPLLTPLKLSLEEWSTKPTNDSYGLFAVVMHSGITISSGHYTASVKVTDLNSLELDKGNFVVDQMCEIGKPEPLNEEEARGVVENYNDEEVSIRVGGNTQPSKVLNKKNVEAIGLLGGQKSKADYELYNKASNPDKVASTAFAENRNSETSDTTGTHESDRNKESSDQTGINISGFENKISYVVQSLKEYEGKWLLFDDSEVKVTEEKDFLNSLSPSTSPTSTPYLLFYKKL
# In all, about 390,000 compounds went through this assay and about 910 (0.23%) were called active. Inconclusive means that the source gave no clear call. Such entries were picked first, then a sample of the others. Calls come from the whole dose curve; as a rule, active = well fitted inhibition curve with a large enough effect; inconclusive = small, poorly fitted or top-dose-only effect; inactive = no such curve, though single readings can be large or run the other way. A potency beside an inconclusive call is a rough fit, not a confirmed value.
# Target: Ubiquitin carboxyl-terminal hydrolase 1 (Homo sapiens) (UniProt O94782)
# Test: Inhibitors of USP1/UAF1: Primary Screen; note: nearly all actives have a fitted effect of over 60% in size
# Settings: recombinant USP1/UAF1, Ub-Rhodamine cleavage fluorescence; activity change, negative = inhibition: at 57.1 µM (top of the series)
# Outline: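 Step one: compound is pinned into 1nM USP1/UAF1 in HEPES pH 7.8 buffer with TCEP. Step two: 15 min room-temperature incubation. Step three: Ub-Rho (150nM final) starts cleavage, tracked by fluorescence over six one-minute reads.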
# % is set by controls: 0 for no effect and ±100 for the full control effect; potency is the fitted concentration of half-maximal effect.
Compound,Potency,"activity change, negative = inhibition"
COc1ccc(CNC(=O)c2c(N)n(CCCN3CCOCC3)c3nc4ccccc4nc23)cc1,"inconclusive: 44.7 µM [inhibitor, partial curve]",–
Cc1ccc(C(=O)c2cn(Cc3ccc(F)cc3)c3nc(C)ccc3c2=O)cc1,–,inactive: -4.67%
Cc1ccc(C(=O)NC(=S)Nc2ccc(-c3ccc(CO)o3)cc2)cc1,"inconclusive: 35.5 µM [inhibitor, partial curve]",–
O=C(Nc1ccccc1N1CCCCC1)c1cc(S(=O)(=O)N2CCOCC2)ccc1F,–,inactive: -6.14%
COc1ccc2c(c1)NC1(O)c3ccccc3C(=O)C21O (centres undefined),–,inactive: -10.6%
CCOC(=O)c1sc(NC(=O)c2nc(SCC)ncc2Cl)c(C(=O)OCC)c1C,"inconclusive: 50.1 µM [inhibitor, partial curve]",–
CCOc1ccc(C(=O)NC(C(=O)NCc2cccnc2)C(C)C)cc1 (centres undefined),"inconclusive: 44.7 µM [inhibitor, single point]",–
COC(=O)c1ccc(CSc2nc3c([nH]c4ccccc43)c(=O)n2-c2cccc(OC)c2)o1,"inconclusive: 31.6 µM [inhibitor, partial curve]",–
[O-][n+]1cccc2c(Br)cc(Br)c(O)c21,"inconclusive: 28.2 µM [inhibitor, partial curve]",–
Cc1ccc(C2c3cccn3CCN2S(=O)(=O)c2ccc([N+](=O)[O-])cc2)cc1 (centres undefined),"inconclusive: 0.708 µM [inhibitor, full curve, poor fit]",–
Cc1oc(-c2ccccc2F)nc1Cn1c(SCc2ccccc2F)nc2ccncc21,"inconclusive: 31.6 µM [inhibitor, partial curve]",–
CN[C@H]1C[C@H]2c3[nH]c4ccc(-c5cccc(C)c5)cc4c3CCN2C[C@H]1[C@H](C)O,"inconclusive: 39.8 µM [inhibitor, partial curve, poor fit]",–
Cc1ccccc1OCc1nc2c3cnn(-c4ccccc4Br)c3ncn2n1,"inconclusive: 0.794 µM [inhibitor, full curve, poor fit]",–
O=C(Nc1nccs1)c1cn(-c2ccccc2)nc1-c1ccccc1,–,inactive: -16.8%
CCOc1cc(-c2noc(CCCC(=O)NC3CCCCC3)n2)ccc1OC,"inconclusive: 5.62 µM [inhibitor, single point]",–
Cc1cc(N/N=C/c2c[nH]c3ccccc23)c2ccccc2n1,–,inactive: 2.57%
COC(=O)c1cc(C(=O)OC)cc(-n2c(C)cc(C=O)c2C)c1,–,inactive: -13.4%
COc1cc2cnc(-c3cccnc3)cc2cc1OC,"inconclusive: 7.94 µM [inhibitor, partial curve, poor fit]",–
CC(C)CNC(=O)c1c(F)c(F)c(F)c(F)c1F,"inconclusive: 89.1 µM [inhibitor, partial curve, poor fit]",–

# Complete entries from above:
# `CCOC(=O)c1sc(NC(=O)c2nc(SCC)ncc2Cl)c(C(=O)OCC)c1C` in the list: Potency: inconclusive: 50.1 µM [inhibitor, partial curve]
# `Cc1ccc(C(=O)c2cn(Cc3ccc(F)cc3)c3nc(C)ccc3c2=O)cc1` in the list: activity change, negative = inhibition: inactive: -4.67%
